The target of the assay is T1, hepatocyte nuclear factor 4α (HNF4α) (rat (endogenous in NRVMs)) (UniProt P22449).
T1 sequence: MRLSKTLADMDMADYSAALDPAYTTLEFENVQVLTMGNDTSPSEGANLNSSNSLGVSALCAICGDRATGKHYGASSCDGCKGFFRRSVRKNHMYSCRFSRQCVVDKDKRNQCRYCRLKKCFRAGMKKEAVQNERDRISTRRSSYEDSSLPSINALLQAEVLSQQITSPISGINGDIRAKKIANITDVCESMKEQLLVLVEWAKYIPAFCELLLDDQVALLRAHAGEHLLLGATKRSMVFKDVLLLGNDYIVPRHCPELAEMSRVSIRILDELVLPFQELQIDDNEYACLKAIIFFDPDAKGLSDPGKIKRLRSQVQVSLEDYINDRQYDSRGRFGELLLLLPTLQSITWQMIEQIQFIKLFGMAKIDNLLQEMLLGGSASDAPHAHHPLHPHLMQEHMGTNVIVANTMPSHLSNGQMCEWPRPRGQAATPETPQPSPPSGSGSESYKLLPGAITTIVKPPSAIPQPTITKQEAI
Briefly: co-IP; endogenous co-IP from NRVM lysates, cells under phenylephrine treatment for 24 h; specific antibody 4 h at 4 °C, then protein A/G agarose beads overnight, three PBS washes, Western blot; IgG as the control. (Immunoblotting shows a protein as a band on a membrane.)

These are yes or no findings as the source states them, for the method shown. In cells and extracts the contact can be indirect. Binding can be weak; no strength is given.

On to “ovarian tumor domain-containing 7B (OTUD7B) (rat (endogenous in NRVMs)) (enzyme)”, for which the binding result is listed as “binds”.

Source of the values: article PMC11954242.
